PubChem BioAssay AID1671190 (National Center for Advancing Translational Sciences (NCATS), 2021)
Out of some 580,000 compounds screened, about 6,100 (1.1%) were called active. Inconclusive results, whose numbers are uncertain, are shown with a selection of clear calls. Calls follow the shape of the dose curve; as a rule, active = well fitted inhibition curve with a large enough effect; inconclusive = small, poorly fitted or top-dose-only effect, or another doubt; inactive = no such curve, though single readings can be large or run the other way. Potencies of inconclusive entries are doubtful fits and often do not repeat.

Protein sequences, listed by entry. Tags and fused reporters are not part of them. Lines headed by an entry give the natural chain unless they say otherwise; changes in a name come on top.
UniProt P18054: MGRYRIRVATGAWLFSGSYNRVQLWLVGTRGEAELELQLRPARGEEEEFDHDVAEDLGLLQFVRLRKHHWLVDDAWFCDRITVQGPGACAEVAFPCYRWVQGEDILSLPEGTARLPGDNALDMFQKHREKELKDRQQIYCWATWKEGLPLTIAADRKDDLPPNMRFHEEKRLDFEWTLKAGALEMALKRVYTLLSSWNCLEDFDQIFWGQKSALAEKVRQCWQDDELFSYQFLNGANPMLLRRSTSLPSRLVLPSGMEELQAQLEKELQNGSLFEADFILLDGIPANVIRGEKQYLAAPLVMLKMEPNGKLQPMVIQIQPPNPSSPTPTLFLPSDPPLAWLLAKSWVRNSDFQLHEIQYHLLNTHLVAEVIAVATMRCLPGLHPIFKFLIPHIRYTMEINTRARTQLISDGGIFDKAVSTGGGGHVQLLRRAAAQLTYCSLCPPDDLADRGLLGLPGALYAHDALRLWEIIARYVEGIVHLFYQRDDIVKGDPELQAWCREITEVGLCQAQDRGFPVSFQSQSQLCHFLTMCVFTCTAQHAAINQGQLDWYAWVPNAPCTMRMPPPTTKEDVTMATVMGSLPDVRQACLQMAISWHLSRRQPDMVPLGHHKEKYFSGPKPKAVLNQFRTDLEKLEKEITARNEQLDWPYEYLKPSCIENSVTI

The molecules below were run against Polyunsaturated fatty acid lipoxygenase ALOX12 (Homo sapiens) (UniProt P18054) (assay: Primary qHTS assay for inhibitors of human arachidonate 12S-lipoxygenase (ALOX12): Round 2). Details: purified 12hLO, xylenol orange hydroperoxide absorbance; activity change, negative = inhibition: at 108 µM (top of the series) unless noted.
Method in brief: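 Purified human 12hLO at 150 nM in 25 mM Hepes, 0.01% Triton X-100, pH 7.0, preincubated 15 min at room temperature with compound. Reaction started with 40 uM arachidonic acid, 30 min at room temperature. Hydroperoxide measured by Fe-xylenol orange, 573/405 nm absorbance ratio.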
% is scaled to controls: 0 for no effect and ±100 for the full control effect; potency is read from the fitted curve at half-maximal effect.

| SMILES | Potency | activity change, negative = inhibition |
| --- | --- | --- |
| CC(C)c1ccc(CN(C(=O)c2cc(=O)c3ccccc3o2)C2CCS(=O)(=O)C2)cc1 (stereo unspecified) | inconclusive: 44.7 µM [inhibitor, partial curve, poor fit] | – |
| COc1cc(NC(=O)c2ccc(N3C(=O)C(C)(C)CS3(=O)=O)cc2)cc(OC)c1OC | – | inactive: 8.41% |
| CC(=O)Nc1ccc(-c2nc(-c3ccc4c(c3)CCC4)cs2)cc1 | inconclusive: 50.1 µM [inhibitor, partial curve, poor fit] | – |
| C/C(=N\Nc1ccc(F)cc1)c1sc2ccc(Cl)cc2c1C | inconclusive: 0.447 µM [inhibitor, full curve, poor fit] | – |
| O=c1[nH]c2cc(Br)cnc2nc1/C=C(\O)c1ccc(F)cc1 | – | inactive: -16.1% |
| CC(C#N)Sc1nnc2c(Cl)cc(C(F)(F)F)cn12 (stereo unspecified) | – | inactive: 20.5% |
| NC(Cc1ccccc1)c1nnc(SCc2ccccc2)o1 (stereo unspecified) | inconclusive: 35.5 µM [inhibitor, partial curve, poor fit] | – |
| COc1cc2c(cc1OC)C(c1c(-c3c(Cl)cccc3Cl)noc1C)=NCC2 | – | inactive: 7.61% |
| CC(Sc1nc(N)cc(N)n1)C(=O)c1ccc(Br)cc1 (stereo unspecified) | inconclusive: 89.1 µM [inhibitor, partial curve, poor fit] | – |
| CC(C)C(=O)Nc1ccc(OCC(F)(F)F)c(C#N)c1 | inconclusive: 126 µM [inhibitor, single point] | – |
| CCC(C)c1ccc(NC(=S)NCc2ccccn2)cc1 (stereo unspecified) | inconclusive: 50.1 µM [inhibitor, partial curve, poor fit] | – |
| Cc1cc(Cl)ccc1NNC(=O)c1cccs1 | inconclusive: 50.1 µM [inhibitor, partial curve, poor fit] | – |
| O=C1C(=O)N(Cc2ccco2)C(c2cccc(Cl)c2)/C1=C(\O)c1ccc2c(c1)OCCO2 (stereo unspecified) | inconclusive: 7.08 µM [inhibitor, full curve] | – |
| Cc1cc(Cl)ccc1Nc1nc(N)c(C(=O)c2ccc(F)cc2)s1 | inconclusive: 44.7 µM [inhibitor, partial curve, poor fit] | – |
| O=C(CCN1CCC(c2ccccc2)C1)c1ccc2ccccc2c1 (stereo unspecified) | active: 15.8 µM | – |
| O=C(OCC(=O)N1CCN(c2ccccc2)CC1)c1ccc(Cl)cc1[N+](=O)[O-] | inconclusive: 50.1 µM [inhibitor, single point] | – |
| O=C(OCC(=O)N1CCN(c2ccccc2)CC1)c1ccccc1OC(F)F | inconclusive: 35.5 µM [inhibitor, partial curve, poor fit] | – |
| COc1ccc(OCc2cc(C(=O)N3CCC(OC)CC3)no2)c2ccccc12 | inconclusive: 10 µM [inhibitor, full curve, poor fit] | – |
| Cc1ccc(Cn2c(C3CCN(C(=O)c4ccccc4Cl)CC3)n[nH]c2=O)cc1 | inconclusive: 35.5 µM [inhibitor, partial curve, poor fit] | – |
| Cc1[nH]n2c(=O)c3c(nc2c1-c1ccccc1)CCC3 | inconclusive: 39.8 µM [inhibitor, partial curve, poor fit] | – |
| O=C(CSc1ccccn1)Nc1ccc2c(c1)C(=O)c1ccccc1C2=O | inconclusive: 79.4 µM [inhibitor, single point] | – |
| COCCNC(=O)c1cc(-c2ccc(OC)cc2)nc2c1c(C)nn2-c1ccccc1 | inconclusive: 39.8 µM [inhibitor, partial curve, poor fit] | – |

| SMILES | Potency | activity change, negative = inhibition |
| --- | --- | --- |
| COC(=O)[C@]1(Cc2ccccc2)N[C@H](CN(C)C(C)=O)[C@@H]2C(=O)N(Cc3ccccc3)C(=O)[C@@H]21 | inconclusive: 28.2 µM [inhibitor, partial curve, poor fit] | – |
| CC(C)(CO)NC(=S)NCc1ccco1 | inconclusive: 44.7 µM [inhibitor, partial curve, poor fit] | – |
| Oc1ccc(C2=Cc3ccc(O)cc3OC2)cc1 | inconclusive: 0.432 µM [inhibitor, full curve, poor fit] | – |
| CCc1ccc(NC2Nc3cc(C)nn3S2)cc1 (stereo unspecified) | active: 25.1 µM | – |
| COc1ccc(/C=C2\SC(=S)N(NC(=O)c3csc4c3CCCC4)C2=O)cc1 | inconclusive: 50.1 µM [inhibitor, partial curve, poor fit] | – |
| COC(=O)c1cccc(NC(=O)c2ccc3c(c2)N(C)C2CCCCCN2C3=O)c1 (stereo unspecified) | – | inactive: 34.9% |
| COC(=O)c1sc(=S)n(-c2cccc(OC)c2)c1N | active: 12.6 µM | – |
| CC1CN(CCOCCOc2ccccc2-c2ccccc2)CC(C)O1 (stereo unspecified) | inconclusive: 1.26 µM [inhibitor, full curve, poor fit] | – |
| C=CCc1ccc(OCCn2nnc3ccccc32)c(OC)c1 | inconclusive: 31.6 µM [inhibitor, single point] | – |
| C[C@@H](C(=O)O)[C@H]1C[C@]1(C)[C@H](NC(=O)OCc1ccccc1)c1ccccc1 | – | inactive: 6.38% |
| COc1ccc(C2SCCN2S(=O)(=O)c2cccc(C)c2)cc1Br (stereo unspecified) | inconclusive: 100 µM [inhibitor, partial curve, poor fit] | – |
| CCCNc1nc(-c2ccc([N+](=O)[O-])cc2)c(C(=O)Nc2ccccc2)s1 | – | inactive: -19.5% |
| Cc1cc(C)n(-c2nc3c(c(=O)n(CC(N)=O)c(=O)n3C)n2CCC(C)C)n1 | – | inactive: 16.8% |
| Cc1onc(-c2ccccc2Cl)c1C(=O)NC(=S)Nc1ccccc1C(N)=O | inconclusive: 44.7 µM [inhibitor, partial curve, poor fit] | – |
| O=C(c1ccoc1)N1CCC2(CC1)Oc1ccc(F)cc1C(=O)C21CC(c2cccnc2)=NO1 (stereo unspecified) | inconclusive: 14.1 µM [inhibitor, full curve] | – |
| CCCCOc1ccc(NC(=O)CN2CCN(CC)CC2)cc1 | inconclusive: 0.316 µM [inhibitor, full curve, poor fit] | – |
| O=S(=O)(Nc1ccc(-c2nc3cccnc3s2)cc1)c1ccc(Cl)s1 | inconclusive: 44.7 µM [inhibitor, partial curve, poor fit] | – |
| CN1C[C@@H](NC(=O)c2ccc(C#N)cc2)C[C@H]1c1nc(-c2cncnc2)no1 | – | inactive: 3.58% [at 176 µM] |
| COc1ccc(CNC(=O)C[C@@H]2C[C@H]3c4cc(NC(=O)NC5CCCC5)ccc4O[C@H]3[C@H](CO)O2)cc1 | inconclusive: 31.6 µM [inhibitor, single point] | – |
| CCc1cccc(NC(=O)CS(=O)Cc2nc(-c3ccc(C)cc3)oc2C)c1 (stereo unspecified) | – | inactive: 20.7% |
| COc1cc2c(cc1OC)C1N(CC2)C(=O)CCC12C(=O)CCCC2=O (stereo unspecified) | – | inactive: 2.98% |
| COC(=O)c1c(NC(=S)NNC(=O)c2ccc(Cl)s2)sc(C(=O)N(C)C)c1C | inconclusive: 31.6 µM [inhibitor, full curve, poor fit] | – |

| SMILES | Potency | activity change, negative = inhibition |
| --- | --- | --- |
| CN1CCN(Cc2cc(=O)oc3ccc(O)cc23)CC1 | inconclusive: 39.8 µM [inhibitor, single point] | – |
| COc1cccc(C(=O)Nc2cccc(OCc3cc(=O)n4cccc(C)c4n3)c2)c1 | inconclusive: 63.1 µM [inhibitor, partial curve, poor fit] | – |
| COc1cc(Nc2nc3ccccc3nc2NS(=O)(=O)c2ccc([N+](=O)[O-])cc2)cc(OC)c1OC | – | inactive: 0.225% |
| O=C(NC1CCCCC1)C1=Cc2cc(Br)ccc2OC1 | inconclusive: 112 µM [inhibitor, single point] | – |
| COc1cccc(Cn2c(=O)c(-c3cccc(F)c3)nc3cncnc32)c1 | – | inactive: -5.85% |
| CC(C)Oc1ccc(F)cc1-c1cc(C(=O)NC2CCCCC2)[nH]n1 | – | inactive: -2.69% |
| COc1cccc(Nc2nc3ccccc3nc2NS(=O)(=O)c2ccc(C)c(C)c2)c1 | – | inactive: 0.339% |
| CCOC(=O)c1cc(CN2CCOCC2)oc1-c1ccccc1 | inconclusive: 31.6 µM [inhibitor, partial curve, poor fit] | – |
| COc1ccc(Nc2nc3ccccc3nc2-n2nc(C)cc2C)cc1 | inactive | – |
| O=C(CSc1ccc2nnc(-c3cccc(F)c3)n2n1)NCC1CCCO1 (stereo unspecified) | active: 3.55 µM | – |
| CCc1ccccc1Nc1cc(C(=O)NCCCN(C)C2CCCCC2)c2ccccc2n1 | inconclusive: 20 µM [inhibitor, full curve] | – |
| O=C(COc1ccccc1)Nc1nnc(SCc2cc(=O)c3ccccc3[nH]2)s1 | inconclusive: 100 µM [inhibitor, partial curve, poor fit] | – |
| COC(=O)c1ccc(NC(=O)CC2C(=O)N(c3ccc(C)cc3)C(=O)N2Cc2ccc(OC)cc2)cc1 (stereo unspecified) | – | inconclusive: -33.7% [inhibitor] |
| CCOc1ccc(CN2CCOc3ccc(C(=O)NCc4ccccc4F)cc3C2)cc1 | – | inactive: -6.41% |
| CCN(CC)c1ccc(C=Nc2cc(C)ccc2C)c(O)c1 | inconclusive: 79.4 µM [inhibitor, partial curve, poor fit] | – |
| CCOc1ccc(S(=O)(=O)Nc2nc3ccccc3nc2NC2CC(C)(C)NC(C)(C)C2)cc1 | inconclusive: 56.2 µM [inhibitor, partial curve, poor fit] | – |
| CN(C)CCNC(=O)c1cc2c(s1)-c1ccccc1OC2 | inconclusive: 112 µM [inhibitor, single point] | – |
| CN(CCc1ccccc1)[C@@H]1[C@H](O)[C@H](CO)O[C@@H]1CNC(=O)c1cccc(F)c1 | – | inactive: 18.1% |
| NC(=O)C1(N2CCCCC2)CCN(C(=S)Nc2ccc(S(N)(=O)=O)cc2)CC1 | inconclusive: 112 µM [inhibitor, single point] | – |
| Cc1cccc(CNC(=O)CSc2nc3ccccc3nc2C)c1 | inconclusive: 50.1 µM [inhibitor, partial curve, poor fit] | – |
| O=C(Nc1cccc(NC(=O)c2ccc(-c3ccc(Br)cc3)o2)c1)c1ccccc1 | – | inactive: 2.25% |
| CC1=C(SCc2ccccc2)C(=O)c2ccccc2C1=O | active: 12.6 µM | – |

Entries of single compounds, quoted from the list. Order of values: Potency | activity change, negative = inhibition
NC(Cc1ccccc1)c1nnc(SCc2ccccc2)o1 (stereo unspecified) is entered as inconclusive: 35.5 µM [inhibitor, partial curve, poor fit] | –
O=C(CSc1ccccn1)Nc1ccc2c(c1)C(=O)c1ccccc1C2=O is entered as inconclusive: 79.4 µM [inhibitor, single point] | –
CC1=C(SCc2ccccc2)C(=O)c2ccccc2C1=O is entered as active: 12.6 µM | –
O=C(Nc1cccc(NC(=O)c2ccc(-c3ccc(Br)cc3)o2)c1)c1ccccc1 is entered as – | inactive: 2.25%
